These results are taken from PMC12709185.

Protein sequences, listed by entry. Tags and fused reporters are not part of them. Lines headed by an entry give the natural chain unless they say otherwise; changes in a name come on top.
UniProt P26368: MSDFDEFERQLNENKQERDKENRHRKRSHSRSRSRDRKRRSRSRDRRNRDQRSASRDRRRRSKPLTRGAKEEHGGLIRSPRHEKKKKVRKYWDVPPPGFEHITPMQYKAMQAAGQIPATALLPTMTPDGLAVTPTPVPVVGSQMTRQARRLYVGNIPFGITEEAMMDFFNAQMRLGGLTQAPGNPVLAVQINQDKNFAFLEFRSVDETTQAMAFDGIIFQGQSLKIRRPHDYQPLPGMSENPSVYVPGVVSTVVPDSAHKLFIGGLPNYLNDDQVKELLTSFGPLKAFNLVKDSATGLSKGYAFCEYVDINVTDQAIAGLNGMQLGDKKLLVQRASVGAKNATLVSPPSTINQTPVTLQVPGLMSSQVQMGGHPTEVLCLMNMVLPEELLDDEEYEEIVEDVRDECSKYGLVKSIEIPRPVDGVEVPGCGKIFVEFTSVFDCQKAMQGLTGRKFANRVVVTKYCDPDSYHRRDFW

Common to all, as to assay: co-IP; HEK293T cells co-expressing U2AF2::FLAG and U2AF1::HA lysed in NP-40 buffer; Protein A/G magnetic beads pre-incubated with anti-HA or anti-FLAG antibody; western blot
For orientation: A western blot detects proteins with antibodies after separation by electrophoresis.

In experiment [1] the target is T1, hU2AF1::HA (human U2AF1, wild type) (human) (UniProt Q01081).
T1 sequence: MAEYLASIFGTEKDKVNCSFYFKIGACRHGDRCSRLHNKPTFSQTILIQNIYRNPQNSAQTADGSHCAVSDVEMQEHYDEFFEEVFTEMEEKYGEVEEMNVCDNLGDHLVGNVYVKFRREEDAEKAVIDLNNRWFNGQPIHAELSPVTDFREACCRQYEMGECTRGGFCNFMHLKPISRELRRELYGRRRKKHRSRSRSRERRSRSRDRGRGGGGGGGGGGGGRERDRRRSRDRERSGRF

The target in experiment [2] is hU2AF2(T145I)::FLAG (human U2AF2 T145I) (human) (UniProt P26368).
In experiment [3] the target is hU2AF2::FLAG (human U2AF2, wild type) (human) (UniProt P26368).

No constants are given. Whether binding was seen depends on the method and setting. Binding seen in cells or lysates may run through a third protein. Some results given as binding are weak or reduced against the parent protein; the word gives no strength. Where a sequence is shown, tags or fusion partners need not be part of it.

As to “hU2AF2(T145I)::FLAG (human U2AF2 T145I) (from UniProt P26368-1 1-475)”, the binding entry in experiment [1] is given as “binds”. Still for that read-out and setting: as for “hU2AF2::FLAG (human U2AF2, wild type) (from UniProt P26368-1 1-475)”, the entry is “binds”.

B1: hU2AF1::HA (human U2AF1, wild type) (protein, UniProt Q01081-2 1-240)
chain: T1 sequence
As for B1, the binding result in experiment [2] and in experiment [3] was “binds” each time.
